# Experimental data from patent publication EP2845588A1, “PIN1 inhibitors for use in the prevention and/or treatment of theileriosis, and related applications” (Centre National de la Recherche Scientifique (CNRS), priority 2013, dated 2015).
# For at least one compound, name, drawing or mass did not settle the structure.
# Assays:
# [1] = system: parasite-infected cells (Theileria parva - TpMD409); experiment: Cell viability XTT assay, TpMD409; assay type: cell-based, bovine; conditions: 72h
# Procedure: (§1) All infected bovine cell lines used in this study were previously described: TBL3 cells were derived from in vitro infection of the spontaneous bovine-B lymphosarcoma cell line, BL3, with Hissar stock of T.annulata. The TpMD409 lymphocyte cell line are infected with T. parva. The culture conditions of these cell lines were previously described by Moreau et al., 1999. Cells were cultured in RPMI 1640 (Gibco-BRL, Paisley, UK), supplemented with 10% heat-inactivated Fetal calf serum, 4mM L-Glutamine, 25mM HEPES, 10µM β-mercaptoethanol and 100µg/ml penicillin/streptomycin in a humidified 5%CO2 atmosphere at 37°C. HepG2, NIH/3T3 and MEF cells lines were cultured in DMEM (Gibco-BRL, Paisley, UK), supplemented with 10% heat-inactivated Fetal calf serum, 4mM L-Glutamine, 25 mM HEPES, 10µM β-mercaptoethanol and 100µg/ml penicillin/streptomycin in a humidified 5% CO2 atmosphere at 37°C. Cell numbers, as judged by Trypan Blue exclusion test, were determined by counting cells using a Countess automated cell counter (Invitrogen, CA, USA). The anti-parasite drug Buparvaquone (BW720c) was used at 200ng/ml for 72 hours. BW720c has no effect on growth of uninfected cells. […]
# [2] = system: parasite-infected cells (Theileria annulata - TBL3); experiment: Cell viability XTT assay, TBL3; assay type: cell-based, bovine; conditions: 72h
# Procedure: as §1
# [3] = system: PKM2, HIF1α, Hexokinase II and PDK1 in TBL3 cells; experiment: Immunoblot of PKM2, HIF1α, Hexokinase II and PDK1 in TBL3 cells; assay type: cell-based, bovine
# Procedure: Total proteins were extracted with Laemmli lysis, sonicated: 15 secs ON / 30 secs OFF for 5 min, resolved on 10.5% acrylamide/bis-acrylamide SDS-PAGE gels and transferred to nitrocellulose membranes (Thermo Fisher Scientific, MA, USA) in transfer buffer. Protein transfer was assessed by Ponceau-red staining. Membranes were blocked in Tris-buffered saline pH7.4 containing 0.1% Tween-20 and 5% milk for 1 h at room temperature. Incubations with primary antibodies were carried out at 4°C overnight using antibody dilutions as manufacturer recommendations in Trisbuffered saline pH7.4, 0.05% Tween-20 and 5% milk. Following 1 h incubation with an anti-rabbit or anti-mouse peroxidase-conjugated antibody (Sigma, St Louis, MO, USA) at room temperature, proteins were detected by chemiluminescence (Thermo Fisher Scientific, MA, USA) following the manufacturer's instructions. The following antibodies were used: Rabbit anti-TaPIN (Home-made antibody, Proteogenix, Peptide used: […]-Cys), rabbit anti-PIN1 (Cell Signaling, Ref: 3722), rabbit anti-TaActin (kindly provided by Jake Baum, Australia), rabbit anti-c-Jun (Santa Cruz, CA, USA Ref: sc1694), mouse anti-αTubulin (Sigma, Ref: T9026), , rabbit anti-HIF1α (Abcam, Cambridge, UK; Ref: ab75918), rabbit anti-Hexokinase II (Cell Signaling, Ref: C64G5), rabbit anti-PDK1 (Cell signaling, Ref: C47H1), mouse anti-HA (Roche, Ref: 11583816001), rabbit anti-FBW7 (Bethyl Laboratories, Ref: A301-721A), rabbit anti-Histone H3 (Abcam, Ref: ab1791), rabbit anti-PKM2 (Abcam, Ref: ab38237), mouse anti-Actin (Sigma, Ref: A1978) and monoclonal anti-FLAG M2-Peroxidase (Sigma, Ref: A8592). c-Jun, FBW7 or PKM2/Actin ratios were calculated after Western blot signal quantification with the Plot Lanes Analysis tool of Image J software (National Institutes of Health, Bethesda, MD, USA).
# HepG2 cells [4] = experiment: Soft agar colony forming assay, HepG2; assay type: cell-based, human; conditions: number of colonies per plate
# Procedure: as §1, with “HepG2, NIH/3T3 and MEF cells lines were cultured in DMEM (Gibco-BRL, Paisley, UK), supplemented with 10% heat-inactivated Fetal calf serum, 4mM L-Glutamine, 25 mM HEPES, 10µM β-mercaptoethanol and 100µg/ml penicillin/streptomycin in a humidified 5% CO2 atmosphere at 37°C.” left out, “USA).” for “USA). The anti-parasite drug Buparvaquone (BW720c) was used at 200ng/ml for 72 hours. BW720c has no effect on growth of uninfected cells.”
# (§2) A two-layer soft agar culture system was used. […] Cultures were incubated in humidified 37°C incubators with an atmosphere of 5%CO2 in air, and control plates were monitored for growth using a microscope. At the time of maximum colony formation (10 days in culture), final colony numbers were counted manually after fixation a staining with 0.005% Crystal Violet (Sigma, Ref.: C3886).
# HepG2 cells [5] = experiment: Cell viability XTT assay, HepG2; assay type: cell-based, human; conditions: 72h
# Procedure: All infected bovine cell lines used in this study were previously described: TBL3 cells were derived from in vitro infection of the spontaneous bovine-B lymphosarcoma cell line, BL3, with Hissar stock of T.annulata. The TpMD409 lymphocyte cell line are infected with T. parva. The culture conditions of these cell lines were previously described by Moreau et al., 1999. Cells were cultured in RPMI 1640 (Gibco-BRL, Paisley, UK), supplemented with 10% heat-inactivated Fetal calf serum, 4mM L-Glutamine, 25mM HEPES, 10µM β-mercaptoethanol and 100µg/ml penicillin/streptomycin in a humidified 5%CO2 atmosphere at 37°C. HepG2, NIH/3T3 and MEF cells lines were cultured in DMEM (Gibco-BRL, Paisley, UK), supplemented with 10% heat-inactivated Fetal calf serum, 4mM L-Glutamine, 25 mM HEPES, 10µM β-mercaptoethanol and 100µg/ml penicillin/streptomycin in a humidified 5% CO2 atmosphere at 37°C. Cell numbers, as judged by Trypan Blue exclusion test, were determined by counting cells using a Countess automated cell counter (Invitrogen, CA, USA). The anti-parasite drug Buparvaquone (BW720c) was used at 200ng/ml for 72 hours. BW720c has no effect on growth of uninfected cells.
# 1×10^4 cells were plated in 96-well plates in triplicate and Buparvaquone, Juglone or PiB was added. […]
# [6] = system: FBW7 and c-Jun in TBL3 cells; experiment: Immunoblot of FBW7 and c-Jun protein in TBL3 cells; assay type: cell-based, bovine
# Procedure: Total proteins were extracted with Laemmli lysis, sonicated: 15 secs ON / 30 secs OFF for 5 min, resolved on 10.5% acrylamide/bis-acrylamide SDS-PAGE gels and transferred to nitrocellulose membranes (Thermo Fisher Scientific, MA, USA) in transfer buffer. Protein transfer was assessed by Ponceau-red staining. Membranes were blocked in Tris-buffered saline pH7.4 containing 0.1% Tween-20 and 5% milk for 1 h at room temperature. Incubations with primary antibodies were carried out at 4°C overnight using antibody dilutions as manufacturer recommendations in Trisbuffered saline pH7.4, 0.05% Tween-20 and 5% milk. Following 1 h incubation with an anti-rabbit or anti-mouse peroxidase-conjugated antibody (Sigma, St Louis, MO, USA) at room temperature, proteins were detected by chemiluminescence (Thermo Fisher Scientific, MA, USA) following the manufacturer's instructions. […]
# [7] = system: Theileria parasites in TBL3-infected cells; experiment: Parasites quantification by DAPI staining in infected cells; assay type: cell-based, T.annulata; conditions: 72h, Buparvaquone 200ng/ml, Juglone 5 µM, PiB 1 µM
# Procedure: All infected bovine cell lines used in this study were previously described: TBL3 cells were derived from in vitro infection of the spontaneous bovine-B lymphosarcoma cell line, BL3, with Hissar stock of T.annulata. The TpMD409 lymphocyte cell line are infected with T. parva. The culture conditions of these cell lines were previously described by Moreau et al., 1999. Cells were cultured in RPMI 1640 (Gibco-BRL, Paisley, UK), supplemented with 10% heat-inactivated Fetal calf serum, 4mM L-Glutamine, 25mM HEPES, 10µM β-mercaptoethanol and 100µg/ml penicillin/streptomycin in a humidified 5%CO2 atmosphere at 37°C. HepG2, NIH/3T3 and MEF cells lines were cultured in DMEM (Gibco-BRL, Paisley, UK), supplemented with 10% heat-inactivated Fetal calf serum, 4mM L-Glutamine, 25 mM HEPES, 10µM β-mercaptoethanol and 100µg/ml penicillin/streptomycin in a humidified 5% CO2 atmosphere at 37°C. Cell numbers, as judged by Trypan Blue exclusion test, were determined by counting cells using a Countess automated cell counter (Invitrogen, CA, USA). The anti-parasite drug Buparvaquone (BW720c) was used at 200ng/ml for 72 hours. BW720c has no effect on growth of uninfected cells. […] Images of immunofluoresence staining were photographed with a fluorescent microscope (Leica Inverted 6000) and the number of parasites per cells was counted. […]
# [8] = system: Parasite-infected TBL3 cells; experiment: Cell proliferation, live cell count after trypan blue exclusion, TBL3; assay type: cell-based, bovine; conditions: live cells counted after trypan blue exclusion
# Procedure: as §1
# [9] = system: Parasite-infected TBL3 cells; experiment: Soft agar colony forming assay, TBL3; assay type: cell-based, bovine; conditions: colonies counted 10 days after plating
# Procedure: as §1, with “HepG2, NIH/3T3 and MEF cells lines were cultured in DMEM (Gibco-BRL, Paisley, UK), supplemented with 10% heat-inactivated Fetal calf serum, 4mM L-Glutamine, 25 mM HEPES, 10µM β-mercaptoethanol and 100µg/ml penicillin/streptomycin in a humidified 5% CO2 atmosphere at 37°C.” left out, “USA).” for “USA). The anti-parasite drug Buparvaquone (BW720c) was used at 200ng/ml for 72 hours. BW720c has no effect on growth of uninfected cells.”
# as §2
# [10] = system: HIF1alpha transcriptional activity; experiment: HRE-Luciferase reporter assay; assay type: cell-based, bovine
# Procedure: Bovine cells were transfected with the 5xHRE (Staller et al., 2003) or CyclinD1- (Wulf et al., 2001) Luciferase reporters, using electroporation (Neon kit, Invitrogen, CA, USA). Mouse cells were transfected using Lipofectamine 2000 (Invitrogen, CA, USA). Transfections efficiencies were normalized to Renilla activity by co-transfection of a pRL-TK Renilla reporter plasmid (Promega, Ref.: E6241). Luciferase assays were performed 36h post-transfection using the Dual-Luciferase Reporter Assay System (Promega, Ref: E1980) in a microplate luminometer. Relative luminescence was represented as the ratio Firefly/Renilla luminescence, compared with the corresponding empty vector control. The 5xHRE promoter-Luciferase construct was obtained from P Staller (Biotech Research & Innovation Centre, Copenhagen, […]).
# [11] = system: parasite load in infected TBL3 cells; experiment: Western blot analysis of parasite actin (TaActin) in infected TBL3 cells; assay type: cell-based, T.annulata; conditions: 72h treatment
# TpMD409 cells = experiment: Soft agar colony forming assay, TpMD409; assay type: cell-based, bovine; conditions: colonies counted 10 days after plating
# Procedure: as §1, with “HepG2, NIH/3T3 and MEF cells lines were cultured in DMEM (Gibco-BRL, Paisley, UK), supplemented with 10% heat-inactivated Fetal calf serum, 4mM L-Glutamine, 25 mM HEPES, 10µM β-mercaptoethanol and 100µg/ml penicillin/streptomycin in a humidified 5% CO2 atmosphere at 37°C.” left out, “USA).” for “USA). The anti-parasite drug Buparvaquone (BW720c) was used at 200ng/ml for 72 hours. BW720c has no effect on growth of uninfected cells.”
# as §2
smiles,measurement,setting,value
"O=C1C=CC(=O)c2c(O)cccc21 [Juglone, 5-Hydroxy-1,4-naphthlenedione]",viability of parasite-infected cells,[1],decreased the viability
same,viability of parasite-infected cells,[2],decreased the viability
same,HIF1α protein expression,[3],reduced
same,PKM2 protein expression,[3],reduced
same,Hexokinase II,[3]; HIF1α target gene,reduced
same,PDK1,[3]; HIF1α target gene,reduced
same,soft agar colony-forming potential of HepG2 cells,HepG2 cells [4],decreased
same,viability of HepG2 cells,HepG2 cells [5],reduce the viability
same,FBW7 protein,[6],induced
same,c-Jun levels,[6],reduced
same,parasites in TBL3 cells,[7],eliminate parasites
same,cell proliferation,[8],affects TBL3 cell proliferation
same,"transformed phenotype, colonies in soft agar",[9],reversed the transformed phenotype
same,HIF1alpha transcriptional activity,[10],reduced
same,"parasite load, parasite actin (TaActin)",[11],decreased parasite load
same,"transformed phenotype, colonies in soft agar",TpMD409 cells,reversed the transformed phenotype
